The supplement of paper PMC7661543
Differences between knockout arms are mostly noise.

System: SKBR3
Assay: relative cell number vs DMSO control (72 h) (% of DMSO); higher = less growth inhibition (more cells)
Procedure: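 QMAP-Seq: a pool of 5 breast cancer cell lines (ZR-75-1, SKBR3, HCC-38, MDA-MB-231, BT-20), each carrying 12 doxycycline-inducible Cas9 sgRNA perturbations (11 knockouts plus non-targeting sgNT), was treated with compounds for 72 h at four 10-fold doses (10 nM-10 uM or 1 nM-1 uM range). Barcodes were amplified and sequenced, and cell number was interpolated from 293T spike-in standard curves. The result is expressed as % of the median of DMSO wells. Two biological replicates.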

O=C(/C=C/c1ccc(O)cc1)c1ccc(O)cc1O [Isoliquiritigenin]
Conditions	relative cell number
sgRNA knockout: sgATF3, 10 nM	105
sgRNA knockout: sgATF3, 100 nM	107
sgRNA knockout: sgATF3, 1000 nM	95.2
sgRNA knockout: sgATF3, 10000 nM	96
sgRNA knockout: sgATF4, 10 nM	88.5
sgRNA knockout: sgATF4, 100 nM	98.3
sgRNA knockout: sgATF4, 1000 nM	89.4
sgRNA knockout: sgATF4, 10000 nM	83.2
sgRNA knockout: sgATF6, 10 nM	105
sgRNA knockout: sgATF6, 100 nM	98.6
sgRNA knockout: sgATF6, 1000 nM	84.6
sgRNA knockout: sgATF6, 10000 nM	96.8
sgRNA knockout: sgATG7, 10 nM	89.9
sgRNA knockout: sgATG7, 100 nM	92.1
sgRNA knockout: sgATG7, 1000 nM	85.8
sgRNA knockout: sgATG7, 10000 nM	103
sgRNA knockout: sgERN1, 10 nM	104
sgRNA knockout: sgERN1, 100 nM	125
sgRNA knockout: sgERN1, 1000 nM	110
sgRNA knockout: sgERN1, 10000 nM	102
sgRNA knockout: sgHSF1, 10 nM	96.7
sgRNA knockout: sgHSF1, 100 nM	105
sgRNA knockout: sgHSF1, 1000 nM	91.4
sgRNA knockout: sgHSF1, 10000 nM	88.9
sgRNA knockout: sgHSF2, 10 nM	86.7
sgRNA knockout: sgHSF2, 100 nM	99.3
sgRNA knockout: sgHSF2, 1000 nM	83.5
sgRNA knockout: sgHSF2, 10000 nM	83
sgRNA knockout: sgKEAP1, 10 nM	93.9
sgRNA knockout: sgKEAP1, 100 nM	98.3
sgRNA knockout: sgKEAP1, 1000 nM	88.4
sgRNA knockout: sgKEAP1, 10000 nM	85.5
sgRNA knockout: sgNFE2L2, 10 nM	85.7
sgRNA knockout: sgNFE2L2, 100 nM	99.4
sgRNA knockout: sgNFE2L2, 1000 nM	84.5
sgRNA knockout: sgNFE2L2, 10000 nM	84.1
sgRNA knockout: sgSLC35F2, 10 nM	95.4
sgRNA knockout: sgSLC35F2, 100 nM	84
sgRNA knockout: sgSLC35F2, 1000 nM	77.4
sgRNA knockout: sgSLC35F2, 10000 nM	82.5
sgRNA knockout: sgXBP1, 10 nM	106
sgRNA knockout: sgXBP1, 100 nM	97.6
sgRNA knockout: sgXBP1, 1000 nM	109
sgRNA knockout: sgXBP1, 10000 nM	75

COc1cc2nccc(Oc3ccc(NC(=O)NC4CC4)c(Cl)c3)c2cc1C(N)=O [Lenvatinib]
Conditions	relative cell number
sgRNA knockout: sgATF3, 10 nM	113
sgRNA knockout: sgATF3, 100 nM	129
sgRNA knockout: sgATF3, 1000 nM	103
sgRNA knockout: sgATF3, 10000 nM	126
sgRNA knockout: sgATF4, 10 nM	89.7
sgRNA knockout: sgATF4, 100 nM	94
sgRNA knockout: sgATF4, 1000 nM	90.2
sgRNA knockout: sgATF4, 10000 nM	92.4
sgRNA knockout: sgATF6, 10 nM	103
sgRNA knockout: sgATF6, 100 nM	97.8
sgRNA knockout: sgATF6, 1000 nM	110
sgRNA knockout: sgATF6, 10000 nM	114
sgRNA knockout: sgATG7, 10 nM	95.2
sgRNA knockout: sgATG7, 100 nM	123
sgRNA knockout: sgATG7, 1000 nM	124
sgRNA knockout: sgATG7, 10000 nM	115
sgRNA knockout: sgERN1, 10 nM	95.81
sgRNA knockout: sgERN1, 100 nM	104
sgRNA knockout: sgERN1, 1000 nM	100
sgRNA knockout: sgERN1, 10000 nM	110
sgRNA knockout: sgHSF1, 10 nM	92.5
sgRNA knockout: sgHSF1, 100 nM	101
sgRNA knockout: sgHSF1, 1000 nM	96.9
sgRNA knockout: sgHSF1, 10000 nM	103
sgRNA knockout: sgHSF2, 10 nM	98.7
sgRNA knockout: sgHSF2, 100 nM	100
sgRNA knockout: sgHSF2, 1000 nM	108
sgRNA knockout: sgHSF2, 10000 nM	105
sgRNA knockout: sgKEAP1, 10 nM	107
sgRNA knockout: sgKEAP1, 100 nM	88
sgRNA knockout: sgKEAP1, 1000 nM	97.3
sgRNA knockout: sgKEAP1, 10000 nM	105
sgRNA knockout: sgNFE2L2, 10 nM	108
sgRNA knockout: sgNFE2L2, 100 nM	96.6
sgRNA knockout: sgNFE2L2, 1000 nM	119
sgRNA knockout: sgNFE2L2, 10000 nM	101
sgRNA knockout: sgSLC35F2, 10 nM	97.6
sgRNA knockout: sgSLC35F2, 100 nM	105
sgRNA knockout: sgSLC35F2, 1000 nM	112
sgRNA knockout: sgSLC35F2, 10000 nM	113
sgRNA knockout: sgXBP1, 10 nM	90.3
sgRNA knockout: sgXBP1, 100 nM	119
sgRNA knockout: sgXBP1, 1000 nM	99.5
sgRNA knockout: sgXBP1, 10000 nM	89.9

CC(C)C[C@H](NC(=O)CNC(=O)c1cc(Cl)ccc1Cl)B(O)O [MLN2238]
Conditions	relative cell number
sgRNA knockout: sgATF3, 10 nM	122
sgRNA knockout: sgATF3, 100 nM	52.3
sgRNA knockout: sgATF3, 1000 nM	8.14
sgRNA knockout: sgATF3, 10000 nM	5.38
sgRNA knockout: sgATF4, 10 nM	73.4
sgRNA knockout: sgATF4, 100 nM	40.5
sgRNA knockout: sgATF4, 1000 nM	9.76
sgRNA knockout: sgATF4, 10000 nM	6.82
sgRNA knockout: sgATF6, 10 nM	73.4
sgRNA knockout: sgATF6, 100 nM	42.7
sgRNA knockout: sgATF6, 1000 nM	11.2
sgRNA knockout: sgATF6, 10000 nM	5.46
sgRNA knockout: sgATG7, 10 nM	81
sgRNA knockout: sgATG7, 100 nM	54.2
sgRNA knockout: sgATG7, 1000 nM	15.9
sgRNA knockout: sgATG7, 10000 nM	7.39
sgRNA knockout: sgERN1, 10 nM	80.6
sgRNA knockout: sgERN1, 100 nM	59.3
sgRNA knockout: sgERN1, 1000 nM	11.5
sgRNA knockout: sgERN1, 10000 nM	7.31
sgRNA knockout: sgHSF1, 10 nM	68.8
sgRNA knockout: sgHSF1, 100 nM	31.5
sgRNA knockout: sgHSF1, 1000 nM	5.21
sgRNA knockout: sgHSF1, 10000 nM	6.17
sgRNA knockout: sgHSF2, 10 nM	90.3
sgRNA knockout: sgHSF2, 100 nM	50.3
sgRNA knockout: sgHSF2, 1000 nM	12
sgRNA knockout: sgHSF2, 10000 nM	6.86
sgRNA knockout: sgKEAP1, 10 nM	72.3
sgRNA knockout: sgKEAP1, 100 nM	48.7
sgRNA knockout: sgKEAP1, 1000 nM	7.51
sgRNA knockout: sgKEAP1, 10000 nM	5.28
sgRNA knockout: sgNFE2L2, 10 nM	61.5
sgRNA knockout: sgNFE2L2, 100 nM	36.1
sgRNA knockout: sgNFE2L2, 1000 nM	8.54
sgRNA knockout: sgNFE2L2, 10000 nM	6.22
sgRNA knockout: sgSLC35F2, 10 nM	72.7
sgRNA knockout: sgSLC35F2, 100 nM	40.4
sgRNA knockout: sgSLC35F2, 1000 nM	11.9
sgRNA knockout: sgSLC35F2, 10000 nM	8.66
sgRNA knockout: sgXBP1, 10 nM	78.1
sgRNA knockout: sgXBP1, 100 nM	52
sgRNA knockout: sgXBP1, 1000 nM	8.21
sgRNA knockout: sgXBP1, 10000 nM	5.33
